One molecule from article PMC4764856 can be followed below.

These are yes or no findings as the source states them, for the method shown. In cells and extracts the contact can be indirect. Some entries that bind do so weakly or less than the wild type.

The target of this experiment is GFP-Smad2, Q15796. Briefly: co-IP; HEK 293 cells stably expressing the GFP fusion, with or without Activin for 1 hr; lysed in cold RIPA buffer; GFP antibody with Protein-G Sepharose beads, 4 °C overnight; blot with anti-Smad4. The note with it: remark: other sources report otherwise.

B1: Smad4, Q13485 1-552 (protein)
chain: MDNMSITNTPTSNDACLSIVHSLMCHRQGGESETFAKRAIESLVKKLKEKKDELDSLITAITTNGAHPSKCVTIQRTLDGRLQVAGRKGFPHVIYARLWRWPDLHKNELKHVKYCQYAFDLKCDSVCVNPYHYERVVSPGIDLSGLTLQSNAPSSMMVKDEYVHDFEGQPSLSTEGHSIQTIQHPPSNRASTETYSTPALLAPSESNATSTANFPNIPVASTSQPASILGGSHSEGLLQIASGPQPGQQQNGFTGQPATYHHNSTTTWTGSRTAPYTPNLPHHQNGHLQHHPPMPPHPGHYWPVHNELAFQPPISNHPAPEYWCSIAYFEMDVQVGETFKVPSSCPIVTVDGYVDPSGGDRFCLGQLSNVHRTEAIERARLHIGKGVQLECKGEGDVWVRCLSDHAVFVQSYYLDREAGRAPGDAVHKIYPSAYIKVFDLRQCHRQMQQQAATAQAAAAAQAAAVAGNIPGPGSVGGIAPAISLSAAAGIGVDDLRRLCILRMSFVKGWGPDYPRQSIKETPCWIEIHLHRALQLLDEVLHTMPIADPQPLD
With B1, the binding entry is given as “binds”.
